{"source": "patent US9259350B2", "about": "“Ophthalmic devices for delivery of beneficial agents” (CooperVision International Holding Company, LP, priority 2012, dated 2016)", "experiment": "Drug uptake by dry vs wet (hydrated) Proclear lenses after autoclave", "assay_type": "physicochemical", "conditions": "for % Δ Dry vs Wet (drug uptake): Proclear lens; for Drug Uptake, Wet Lens: hydrated Proclear lens; for Drug Uptake, Wet Lens / Drug Uptake, Dry Lens: autoclaved, n=3; for Drug Uptake, Dry Lens: non-hydrated Proclear lens", "experimental": "The ability of hydrated and non-hydrated (dry) Proclear lenses to take up olopatadine, ketotifen, and cromolyn was evaluated. At physiological pH, olopatadine is zwitterionic, ketotifen is positively charged, and cromolyn is negatively charged. […] The dry lenses were removed from their original molds, packaged with 3 ml of each drug solution without any intermediate hydration step and autoclaved. For controls, each drug solution was packaged without a lens and autoclaved. After autoclave, the amount of drug in each packaging solution was measured by HPLC.", "key": {"[1]": {"conditions": "high concentration: 250 μg/ml ketotifen (borate buffer), 1000 μg/ml olopatadine (PBS), 2000 μg/ml cromolyn (PBS)"}, "[2]": {"conditions": "low concentration: 25 μg/ml ketotifen (borate buffer), 200 μg/ml olopatadine (PBS), 400 μg/ml cromolyn (PBS)"}}, "note": "For at least one compound, name, drawing or mass did not settle the structure."}
{"smiles": "O=C(O)c1cc(=O)c2c(OCC(O)COc3cccc4oc(C(=O)O)cc(=O)c34)cccc2o1", "note": "[cromolyn]", "values": [{"measurement": "% Δ Dry vs Wet (drug uptake)", "setting": "high concentration: 250 μg/ml ketotifen, 1000 μg/ml olopatadine, 2000 μg/ml cromolyn", "result": 91, "unit": "%"}, {"measurement": "% Δ Dry vs Wet (drug uptake)", "setting": "low concentration: 25 μg/ml ketotifen, 200 μg/ml olopatadine, 400 μg/ml cromolyn", "result": 47, "unit": "%"}, {"measurement": "uptake by dry lenses compared to wet lenses", "setting": "Proclear lenses, both low and high concentrations", "result": "significantly more"}, {"measurement": "Drug Uptake, Wet Lens", "setting": "[1]", "result": 81, "unit": "µg"}, {"measurement": "Drug Uptake, Wet Lens", "setting": "[2]", "result": 32, "unit": "µg"}, {"measurement": "Drug Uptake, Dry Lens", "setting": "[1]", "result": 155, "unit": "µg"}, {"measurement": "Drug Uptake, Dry Lens", "setting": "[2]", "result": 47, "unit": "µg"}]}
